Test results taken from PMC7819943, “Rice protein-binding microarrays: a tool to detect cis-acting elements near promoter regions in rice”.
Some of the results follow.

Each sequence was assayed against T1, OsSMF1 (Oryza sativa, UniProt Q6ZLB0 1-436) (assay: protein-binding microarray (RPBM); PBS, 2% BSA, 51.3 ng/ul salmon testes DNA, 50 uM zinc acetate, 200 nM TF, 25 C, 1 h; high values mean tight binding). Settings: protein: recombinant; tags: N-terminal polyhistidine and DsRed monomer fusion (pET32a); chain copies: 2; label: CyDye5-dUTP incorporated in the synthesized complementary strand; 3' TTTTT single-stranded linker to array surface; dsDNA, one strand shown.
T1 sequence: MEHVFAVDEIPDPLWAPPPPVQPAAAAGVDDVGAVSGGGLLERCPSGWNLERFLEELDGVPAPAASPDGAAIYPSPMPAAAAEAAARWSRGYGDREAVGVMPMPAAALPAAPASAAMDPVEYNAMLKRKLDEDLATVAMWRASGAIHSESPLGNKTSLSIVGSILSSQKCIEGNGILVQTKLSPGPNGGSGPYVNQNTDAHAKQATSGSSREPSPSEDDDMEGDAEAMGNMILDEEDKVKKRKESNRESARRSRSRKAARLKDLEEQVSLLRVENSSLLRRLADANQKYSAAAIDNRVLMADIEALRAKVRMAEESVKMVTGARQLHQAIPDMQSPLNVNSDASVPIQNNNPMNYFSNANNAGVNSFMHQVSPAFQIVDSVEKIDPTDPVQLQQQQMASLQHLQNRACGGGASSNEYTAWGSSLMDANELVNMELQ
How it was run: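 Transcription factors were each fused at the N-terminus to a polyhistidine tag plus DsRed and expressed in E. coli BL21-CodonPlus before Ni–NTA purification. Binding to a double-stranded custom Agilent array was carried out with 200 nM protein at 25 °C for 1 h in PBS, 2% BSA, salmon testes DNA and 50 µM zinc acetate. The binding signal is per-feature fluorescence intensity, in arbitrary units, on an Axon 4000B scanner.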
For “GACTTATGACCTCTAATCCCAACTACAGGTCTACAGCGATCGGAGTCACCTAGTGCAG”, the binding signal was 35000 fluorescence intensity (a.u.).
For “TCTAGCTAGCACCATAAGGTGATAGACTAACCAGCCCGATCGGAGTCACCTAGTGCAG”, the binding signal was 31400 fluorescence intensity (a.u.).
In the case of “TAGTAGATCTAGTATTTTATCTTTAGTCCATCTACCGAGCCGGAGTCACCTAGTGCAG”, the binding signal is reported as 28500 fluorescence intensity (a.u.).
With “TCACCCATATAAGAACACACAAGAGGAGAAGAGAAGGGAACGGAGTCACCTAGTGCAG” the binding signal was 3540 fluorescence intensity (a.u.).
In the case of “GGGAAGAGAGAAGAGACGAAACAGGGAGGAGGGGATTGGGCGGAGTCACCTAGTGCAG”, the binding signal is reported as 3320 fluorescence intensity (a.u.).
For “AATTGCTGGGTACAATCCAAAGTCAGATATGATGTGTTGTCGGAGTCACCTAGTGCAG”, the binding signal was 3350 fluorescence intensity (a.u.).
With “CCATATGTTCCAGGTCAGGATATGTACTCCACTTTCATGCCGGAGTCACCTAGTGCAG” the binding signal was 3580 fluorescence intensity (a.u.).
In the case of “GATTGATCGCCAGAAATCGCATGCAGTATAGTGTGAAGTTCGGAGTCACCTAGTGCAG”, the binding signal is reported as 22900 fluorescence intensity (a.u.).
In the case of “CCTCACTTTCACTCCACACGTACAACTCAGCTCATTCCACCGGAGTCACCTAGTGCAG”, the binding signal is reported as 3280 fluorescence intensity (a.u.).
In the case of “AAACATAAATCAAAATTTAGAAGTTAAAGAAACCCAGATTCGGAGTCACCTAGTGCAG”, the binding signal is reported as 18900 fluorescence intensity (a.u.).
With “AGTGCCATCAGCTCAGTAGATGTGTTGCCGTGTTGGTGTCCGGAGTCACCTAGTGCAG” the binding signal was 3910 fluorescence intensity (a.u.).
“ATTCTAAAATCATGATGCTGATCTCGGCGTGACGTGTTGGCGGAGTCACCTAGTGCAG” was tested, and the binding signal was 6630 fluorescence intensity (a.u.).
“AGTGGTGGTGAAGTGGGTGAGAAACTATCTTCTGTTCCTCCGGAGTCACCTAGTGCAG” was tested, and the binding signal was 3900 fluorescence intensity (a.u.).
In the case of “GGTGCGTCACCCGTGGCGCCAGCGTCAAGGCTGTGGACCACGGAGTCACCTAGTGCAG”, the binding signal is reported as 5440 fluorescence intensity (a.u.).
“AAAAGGGATGACGATATTAAGTGCAAATGAATTTGGATCACGGAGTCACCTAGTGCAG” was tested, and the binding signal was 3200 fluorescence intensity (a.u.).
In the case of “CTTCTAATTAGAGACTTGGTGTGTCACATAGTCGTCAGGTCGGAGTCACCTAGTGCAG”, the binding signal is reported as 3150 fluorescence intensity (a.u.).
For “CCAACGTCGTACATCCCTCCACGTCATCGATCCGCGCCGCCGGAGTCACCTAGTGCAG”, the binding signal was 35200 fluorescence intensity (a.u.).
For “TAAGATCTTGTTGTGAAGATTTAATTGTAACAAACACAATCGGAGTCACCTAGTGCAG”, the binding signal was 17600 fluorescence intensity (a.u.).
With “ATCATCTCGTCTCGTCAGTCAAATCATCATTTGGTCAACACGGAGTCACCTAGTGCAG” the binding signal was 3360 fluorescence intensity (a.u.).
In the case of “AACAACTGTACTAATTGGGCTGCTGTCCTGACTGACTCAGCGGAGTCACCTAGTGCAG”, the binding signal is reported as 6980 fluorescence intensity (a.u.).
For “AGCTTCCGTCAAGTAGCGATTAAACAGGCCCTATGAAGATCGGAGTCACCTAGTGCAG”, the binding signal was 27700 fluorescence intensity (a.u.).
In the case of “GGCTGGCGACGCCAAGGTGATGGCAGCGGCGGCGGTTATGCGGAGTCACCTAGTGCAG”, the binding signal is reported as 3520 fluorescence intensity (a.u.).
In the case of “GTCGTGCTAGCTCGATCCATTTCCTACGTGTGCACCAAACCGGAGTCACCTAGTGCAG”, the binding signal is reported as 5810 fluorescence intensity (a.u.).
For “AATTAAGATAGGTACACGTGTGGTGGATAAAGATGATCTACGGAGTCACCTAGTGCAG”, the binding signal was 4010 fluorescence intensity (a.u.).
With “ATTGATCCACCATCTTTCCACGTATGTAAGATTCATGCAACGGAGTCACCTAGTGCAG” the binding signal was 3940 fluorescence intensity (a.u.).
With “AAATTAAATCCATTTTAGCCACGCACTCAAGTTAGGATTTCGGAGTCACCTAGTGCAG” the binding signal was 3260 fluorescence intensity (a.u.).
For “ATAAATATCTCCACGTGTGCACGAACTCATCCGCCGCACACGGAGTCACCTAGTGCAG”, the binding signal was 14600 fluorescence intensity (a.u.).
In the case of “GAGACACCGACGCGTCACACCACCACGTCCGTTTCCGTACCGGAGTCACCTAGTGCAG”, the binding signal is reported as 9870 fluorescence intensity (a.u.).
With “TTGTGATTTCCTTAATATAGAATAGAACCCTGCTCATATACGGAGTCACCTAGTGCAG” the binding signal was 25300 fluorescence intensity (a.u.).
“GCAAAATACAAACAAGGCAAGCAGGGAAGAATCCAAGCCGCGGAGTCACCTAGTGCAG” was tested, and the binding signal was 7140 fluorescence intensity (a.u.).
For “ATTGAATTGCTCTAGTTTCACTCCTTTAATTACCATGTATCGGAGTCACCTAGTGCAG”, the binding signal was 3440 fluorescence intensity (a.u.).
With “CAGGCGGCGCACGTGCATGACGTACGCGTCGAATGGTCCGCGGAGTCACCTAGTGCAG” the binding signal was 8150 fluorescence intensity (a.u.).
With “GATGACCATGCCACCAGGTTGGTGCGCCGCCACGATCATGCGGAGTCACCTAGTGCAG” the binding signal was 3320 fluorescence intensity (a.u.).
In the case of “GAATTAGCTTGATTGACAGAAACAAATGGCTACAACTACACGGAGTCACCTAGTGCAG”, the binding signal is reported as 65500 fluorescence intensity (a.u.).
“CGAATCTTTTAAGCCTATTTACGCCATGATTTGACAATGTCGGAGTCACCTAGTGCAG” was tested, and the binding signal was 3530 fluorescence intensity (a.u.).
In the case of “GTCCGGCCGCCTTGCGCGCCAGCTCCACGCACCGCCGCATCGGAGTCACCTAGTGCAG”, the binding signal is reported as 4300 fluorescence intensity (a.u.).
“AGAGTCTCAGATGCACCATTTGGATGGACAAGTGATGTGGCGGAGTCACCTAGTGCAG” was tested, and the binding signal was 6180 fluorescence intensity (a.u.).
With “ATCTAACCATGCGTCATTCACAGTTCTTCGTTCTTGTCTTCGGAGTCACCTAGTGCAG” the binding signal was 4610 fluorescence intensity (a.u.).
In the case of “AAGCAATGATTGGATTTCACGTGGCCTGCCTGCGGAGTAGCGGAGTCACCTAGTGCAG”, the binding signal is reported as 3420 fluorescence intensity (a.u.).
In the case of “ATAGTCTCAATGGCAACATTGCCAACTCATTTGTTTCCATCGGAGTCACCTAGTGCAG”, the binding signal is reported as 5470 fluorescence intensity (a.u.).
With “GTTCAGTTGTTGTGTGATAACTCAAGCTGCGTGAGTCGTCCGGAGTCACCTAGTGCAG” the binding signal was 3220 fluorescence intensity (a.u.).
For “CGAATCCACCCACGCAAGCGCGGCGGTGGGCCCCACCTGTCGGAGTCACCTAGTGCAG”, the binding signal was 4420 fluorescence intensity (a.u.).
